Data published in PubChem BioAssay AID1439 (NMMLSC, 2008).
Hit rate of the full screen: of about 220,000 compounds, about 770 (0.35%) were called active. The shares of active, inactive and inconclusive entries below differ from those in the screen. Cut-off read from the data, not from the text of the source: active = binding response below about 49% or above about 150%; inconclusive = no clear call, values can overlap the other calls; inactive = in between.

Protein sequences, listed by entry. Tags and fused reporters are not part of them.
UniProt P09471, whole entry, looked up: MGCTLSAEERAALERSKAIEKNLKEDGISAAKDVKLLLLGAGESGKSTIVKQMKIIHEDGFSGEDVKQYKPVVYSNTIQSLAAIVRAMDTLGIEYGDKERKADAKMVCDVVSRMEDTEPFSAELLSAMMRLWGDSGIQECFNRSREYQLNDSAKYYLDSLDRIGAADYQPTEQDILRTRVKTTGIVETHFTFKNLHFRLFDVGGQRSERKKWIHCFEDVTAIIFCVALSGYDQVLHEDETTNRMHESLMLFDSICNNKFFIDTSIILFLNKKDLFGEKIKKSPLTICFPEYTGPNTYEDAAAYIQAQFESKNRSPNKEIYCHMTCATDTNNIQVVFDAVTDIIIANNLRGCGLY

biological target: Guanine nucleotide-binding protein G(o) subunit alpha (Homo sapiens) (UniProt P09471); assay: compounds changing RGS7 association with Galphao – biochemical, multiplexed bead flow cytometry, primary screen (AID 1439); details: at 10 µM, actives lie on both sides;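 note: fluorescent Galphao held in activated GDP-AlF4 state binding bead-coupled RGS7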

| Structure (SMILES) | binding response (% of control) |
| --- | --- |
| O=C1NC(=O)C(CCc2ccncc2)(Cc2ccc(OCc3ccccc3)cc2)C(=O)N1 | inconclusive: 144% |
| O=C(NC(=O)c1c(F)cccc1F)Nc1cc(Cl)c(F)c(Cl)c1F | inconclusive: 109% |
| CCN(CC)c1ccc(N=Cc2c(O)n(Cc3ccco3)c(=O)[nH]c2=O)cc1 | inconclusive: 119% |
| NC1=C([N+](=O)[O-])C(c2ccc3c(c2)OCO3)c2c(c3ccccc3oc2=O)O1 (stereo not drawn) | inconclusive: 108% |
| CC(=O)Nc1ccc(N=Cc2c(O)n(Cc3ccco3)c(=O)[nH]c2=O)cc1 | inconclusive: 181% |
| COc1ccc(OC)c(-n2c(O)c(/C=C3\C(C)=Nc4ccccc43)c(=O)[nH]c2=O)c1 | inconclusive: 81.5% |
| Cc1c(C(c2ccc(Cl)cc2Cl)c2c(O)c3ccccc3oc2=O)c(=O)n(-c2ccccc2)n1C (stereo not drawn) | inactive: 84.2% |
| Brc1ccccc1 | inconclusive: 124% |
| CN1CCN(/N=C/c2c(O)n(CCC3=CCCCC3)c(=S)[nH]c2=O)CC1 | inconclusive: 106% |
| CN(C)CCN=Cc1c(O)n(-c2cccc(C(F)(F)F)c2)c(=O)[nH]c1=O | inactive: 97.2% |
| Cn1cc2c([N+](=O)[O-])cc([N+](=O)[O-])cc2n1 | inconclusive: 78.2% |
| N#Cc1ccccc1NC(=O)CN1CC=C(c2ccccc2)CC1 | inconclusive: 96.7% |
| COc1ccccc1/C=C1/C(=N/O)C2CCN1CC2 | inactive: 95.6% |
| Cc1cc(OCCN2CC2)c2ccccc2n1 | inconclusive: 116% |
| COc1ccc(C(=O)OC2CC[C@@]3(C)C4CCC5[C@]6(O)CC(O)[C@@]7(O)C(CN8CC(C)CCC8[C@@]7(C)O)[C@]6(O)C[C@@]53O[C@]24O)cc1OC (stereo partly drawn) | inconclusive: 29.2% |
| COc1ccccc1-n1c(O)c(/C=N/N2CCCCC2)c(=O)n(-c2ccccc2OC)c1=S | inconclusive: 52.2% |
| C=CCn1c(O)c(C(CC)=Nc2ccc(N(C)C)cc2)c(=O)[nH]c1=O | inconclusive: 153% |
| O=C1/C(=C/c2cc3c(cc2Cl)OCO3)N2CCC1CC2 | inactive: 98.3% |
| Cc1nc2c(c(=O)[nH]1)C(c1ccccc1Cl)c1c(c3ccccc3oc1=O)O2 (stereo not drawn) | inconclusive: 99.8% |
| Cc1cccn2c(=O)c3c(nc12)N1CCCCCC1C1(C3)C(=O)N(C)C(=O)N(C)C1=O (stereo not drawn) | inconclusive: 72.6% |
| O=c1c2ccccc2nc(/C=C/c2ccc(O)cc2)n1-c1ccccc1O | inconclusive: 58.4% |
| CC12CC[C@H]3[C@@H](CCC4(O)C[C@H](O)CCC34/C=N/NC(=O)c3ccccc3F)C1(O)CCC2C1=CC(=O)OC1 (stereo partly drawn) | inconclusive: 75.5% |

| Structure (SMILES) | binding response (% of control) |
| --- | --- |
| CSc1ccc(C(=O)C2CCCN(Cc3ccn[nH]3)C2)cc1 (stereo not drawn) | inconclusive: 73% |
| CC1(C)C2([N+](=O)[O-])CN3CC1([N+](=O)[O-])CN(C2)C3c1ccccn1 (stereo not drawn) | inconclusive: 88.2% |
| Cc1ncc(CN2CCCC(C(=O)c3sccc3C)C2)s1 (stereo not drawn) | inactive: 98.5% |
| O=[N+]([O-])c1cc(S(=O)(=O)c2ccc(O)c([N+](=O)[O-])c2)ccc1O | inactive: 99.5% |
| COc1ccc(C=C2C(=O)N(C)C(=O)N(C)C2=O)cc1CSc1ccccn1 | inactive: 95.2% |
| CCOP(=O)(Cc1ccc(C#N)o1)OCC | inconclusive: 98.1% |
| CC1(C)C2([N+](=O)[O-])CN3CC1([N+](=O)[O-])CN(C2)C3c1cccnc1 (stereo not drawn) | inconclusive: -414% |
| CC(NCC#Cc1ccccc1)C(O)c1ccccc1 (stereo not drawn) | inconclusive: 98% |
| Cc1cccc(-n2c(=S)[nH]c3ccccc3c2=O)n1 | inconclusive: 102% |
| O=C1NC(=O)N(Cc2ccco2)C(=O)/C1=C/C=C/c1ccco1 | inconclusive: 71.1% |
| O=C(O)CC1OCC=C2CN3CCC45c6ccccc6NC4C1C2CC35 (stereo not drawn) | inconclusive: 53.4% |
| CN1CCN(c2nc3ccccc3o2)CC1 | inconclusive: 101% |
| Cc1cc(C=O)c(C)n1C1CC1 | inactive: 95.6% |
| Cc1ccc(CN2CCCC(C(=O)c3ccc4c(c3)OCO4)C2)cc1C (stereo not drawn) | inconclusive: -93.7% |
| COC(=O)c1ccc(CN2CCN(Cc3ccccc3)CC2)cc1 | inactive: 101% |
| Clc1ccccc1CN1CCN(c2cccc3[nH]ccc23)CC1 | inconclusive: 75.5% |
| CN(C)C(=O)Oc1ccc(Cl)c2cccnc12 | inactive: 80.1% |
| O=C1NC(=O)N(Cc2ccccc2)C(=O)/C1=C\c1ccco1 | inconclusive: 82% |
| CP(=O)(Nc1ccccc1)C(Cl)(Cl)Cl (stereo not drawn) | inconclusive: 105% |
| Cc1ccc(S(=O)(=O)N(C)C)cc1NC(=O)C(C)[N+]12CCN(CC1)CC2 (stereo not drawn) | inconclusive: 100% |
| CCc1n[nH]c(CCN)n1 | inconclusive: 128% |
| COC(=O)c1c(C)n(Cc2ccc3c(c2)OCO3)c2ccc(O)cc12 | inactive: 104% |

5 consecutive records out of the list so far, quoted:

| Structure (SMILES) | binding response (% of control) |
| --- | --- |
| CN1CCN(c2nc3ccccc3o2)CC1 | inconclusive: 101% |
| Cc1cc(C=O)c(C)n1C1CC1 | inactive: 95.6% |
| Cc1ccc(CN2CCCC(C(=O)c3ccc4c(c3)OCO4)C2)cc1C (stereo not drawn) | inconclusive: -93.7% |
| COC(=O)c1ccc(CN2CCN(Cc3ccccc3)CC2)cc1 | inactive: 101% |
| Clc1ccccc1CN1CCN(c2cccc3[nH]ccc23)CC1 | inconclusive: 75.5% |

Remaining list, next part.

| Structure (SMILES) | binding response (% of control) |
| --- | --- |
| CCCCC(=O)N/N=C/c1c(O)n(CCC2=CCCCC2)c(=O)[nH]c1=O | inconclusive: -70.2% |
| Cc1c(CCN)ccc2c1[nH]c1ccccc12 | inconclusive: 87.5% |
| CC(=NCCN(C)C)c1c(O)n(Cc2ccccc2)c(=O)[nH]c1=O | inconclusive: 103% |
| COc1ccc(NP(=O)(Oc2cccc(C)c2)Oc2cccc(C)c2)cc1OC | inconclusive: 74.6% |
| CCC(=NCCN1CCOCC1)c1c(O)n(-c2ccccc2C)c(=O)[nH]c1=O | inactive: 106% |
| COC(=O)CC1=C(C(=O)OC)C2(C(=O)N(C)c3ccccc32)C(C#N)=C(N)O1 (stereo not drawn) | inactive: 103% |
| CC(=NCc1ccco1)c1c(O)n(-c2ccccc2C)c(=O)[nH]c1=O | inconclusive: 183% |
| CN1C(=O)C(=Cc2coc3ccccc3c2=O)C(=O)N(C)C1=O | inconclusive: 125% |
| CCOP(=O)(OCC)C(NC(=O)c1cccc(C)c1)C(Cl)(Cl)Cl (stereo not drawn) | inconclusive: -177% |
| O=C(COC(=O)Cc1ccccc1)Nc1ccc(F)cc1 | inconclusive: 94.5% |
| CNC(=S)N(C)CCc1cc2c(c(OC)c1C=C1C(=O)NC(=O)NC1=O)OCO2 | inconclusive: 929% |
| Cc1ccc(C)c(OCC(=O)N2CCN(Cc3ccc4c(c3)OCO4)CC2)c1 | inactive: 95.7% |
| CN(C)CC#CCn1c2ccccc2c2ccccc21 | inconclusive: 185% |
| C=CCNC(=S)/N=C/c1c(O)[nH]c(=O)[nH]c1=O | inconclusive: 120% |
| CCOC(=O)C1CCCN(c2ccc([N+](=O)[O-])c3nonc23)C1 (stereo not drawn) | inactive: 111% |
| Cn1cnnc1Sc1cc(N2CCNCC2)ccc1[N+](=O)[O-] | inconclusive: 88% |
| Cc1ccc(S(=O)(=O)N(c2cc(Cl)c(O)c(Cl)c2)P(=O)(OC(C)C)OC(C)C)cc1 | inconclusive: 107% |
| O=C1NC(=O)N(Cc2ccc(F)cc2)C(=O)/C1=C\c1ccc(N2CCCC2)cc1 | inconclusive: 335% |
| CC(C)N(Cc1ccco1)/N=C/c1c(O)n(Cc2ccccc2)c(=O)[nH]c1=O | inconclusive: 97.6% |
| Cc1cccc(NC2=NCCCS2)c1 | inconclusive: 121% |
| CCC(CO)NC(=O)C1C=C2c3cccc4[nH]cc(c34)CC2N(C)C1 (stereo not drawn) | inconclusive: -358% |
| CCCCn1c(O)c(C=NCc2ccc3c(c2)OCO3)c(=O)[nH]c1=O | inconclusive: 64.4% |

| Structure (SMILES) | binding response (% of control) |
| --- | --- |
| CCOc1ccc(Cl)cc1CNCCc1ccccc1F | inconclusive: 83.8% |
| CCN(CC)S(=O)(=O)c1cccc(N=Nc2c(O)n(CC)c(=S)n(CC)c2=O)c1 | inconclusive: 35.7% |
| CCC(=NCc1cc(OC)cc(OC)c1)c1c(O)[nH]c(=O)[nH]c1=O | inconclusive: 88.7% |
| CN(C)P(=O)(NC(=O)c1cccn1C)N(C)C | inactive: 105% |
| O=C(c1ccccc1)N1CCC2(CC1)OCCO2 | inconclusive: 188% |
| COc1ccc(-n2c(O)c(C(C)=NCC3CCCO3)c(=O)[nH]c2=O)cc1 (stereo not drawn) | inconclusive: 30.8% |
| CCOC(=O)C(O)(c1ccc(N=c2ccccn2C)cc1)C(F)(F)F (stereo not drawn) | inconclusive: 100% |
| COc1cc2c(cc1OC)CN(c1ccc([N+](=O)[O-])c(C(F)(F)F)c1)CC2 | inactive: 98.7% |
| NP(=O)(Oc1ccccc1Cl)Oc1ccccc1Cl | inconclusive: 94.8% |
| O=C1NC(=O)N(CC2CCCO2)C(=O)/C1=C/c1cccs1 (stereo not drawn) | inconclusive: 558% |
| O=C(N/N=C/c1c(O)n(Cc2ccc(F)cc2)c(=O)[nH]c1=O)c1ccccc1 | inconclusive: 55.4% |
| COC1C(OC(=O)c2ccc(C)[nH]2)C(O)C(Oc2ccc3c(O)c(NC(=O)c4ccc(O)c(CC=C(C)C)c4)c(=O)oc3c2Cl)OC1(C)C (stereo not drawn) | inconclusive: 104% |
| COc1ccc(-n2c(SCCN(C)C)nc3ccccc3c2=O)cc1 | inconclusive: -11.1% |
| CN1CCN(/N=C/c2c(O)n(Cc3ccc(F)cc3)c(=O)[nH]c2=O)CC1 | inconclusive: 99.5% |
| CCCCCCn1c(O)c(/C=N/N2CCCCCC2)c(=O)[nH]c1=O | inconclusive: 107% |
| CN1CCC(O)(c2ccc(Cl)cc2)C(C(=O)c2ccc(Cl)cc2)C1 (stereo not drawn) | inactive: 98.2% |
| COc1cc(OC)c(OC)cc1/C=C1/C(=O)NC(=O)N(Cc2ccccc2)C1=O | inconclusive: 332% |
| Cc1ccc(CN2CCCC(C(=O)c3sccc3C)C2)o1 (stereo not drawn) | inactive: 96.8% |
| Nc1c([N+](=O)[O-])cc(F)c(N2CCNCC2)c1Br | active: 39.3% |
| CCOP(=O)(Cc1cc(C(=O)CC)c(C)o1)OCC | inconclusive: 126% |
| CC1=C2C(=O)C3C(CC=C4CC(OC5OC(O)C(O)C(O)C5CO)CCC43C)C2CCC12OC1CC(C)CNC1C2C (stereo not drawn) | inconclusive: 55.3% |
| CC(=NCC1CCCO1)c1c(O)n(C2CCCCC2)c(=O)[nH]c1=O (stereo not drawn) | inconclusive: 101% |

Entries from the list above with bromine:

| Structure (SMILES) | binding response (% of control) |
| --- | --- |
| Brc1ccccc1 | inconclusive: 124% |
| Nc1c([N+](=O)[O-])cc(F)c(N2CCNCC2)c1Br | active: 39.3% |
